Reference: PubChem BioAssay AID540256 (National Center for Advancing Translational Sciences (NCATS), 2011)
The campaign covered roughly 300,000 compounds. About 3,700 (1.2%) were called active. This list was built around the results that the source calls inconclusive (neither active nor inactive); the mix of calls is not that of the screen. Calls follow the shape of the full dose curve; tested in HEK293 cells. Potencies beside an inconclusive call are fits to weak or partial responses and may not hold up.
% is scaled to controls: 0 for no effect and ±100 for the full control effect; potency is read from the fitted curve at half-maximal effect.

Experiment: qHTS for Inhibitors of binding or entry into cells for Lassa Virus; also: nearly all actives have a fitted effect of over 50% in size
Conditions: Lassa virus pseudotype entry inhibition, cell reporter; activity change, negative = inhibition: at 37.9 µM (top of the series) unless noted
For Cc1cc(C)c(C(=O)CSc2nc3ccccc3c(=O)[nH]2)cc1C, the “activity change, negative = inhibition” value was inactive: 18%.
For CCC(=O)Nc1ccc(-c2cc3ccccc3oc2=O)cc1, the Potency was inconclusive: 7.08 µM [activator, partial curve, poor fit].
In the case of CC(C)CCNC(=S)Nc1ccc(Br)cc1, the Potency is reported as inconclusive: 29.1 µM [inhibitor, single point].
For O=c1oc(-c2cccc(Cl)c2)nc2c1cnn2-c1ccccc1, the Potency was inconclusive: 23.1 µM [inhibitor, single point].
For c1ccc2c(C3=NNC(=NC4CC4)SC3)c[nH]c2c1, the Potency was active: 11.2 µM.
In the case of O=C(Nc1ccccc1Br)c1cc(=O)c2ccccc2o1, the “activity change, negative = inhibition” value is reported as inactive: 2.78% [at 46.1 µM].
With CCC(Sc1nc2nccnc2c(=O)n1Cc1ccc(Cl)cc1)C(=O)NC1CCCCC1 (stereo not given) the “activity change, negative = inhibition” value was inactive: 1.79% [at 46.1 µM].
For O=C(/C=C/c1ccccc1)NC(NC(=S)Nc1cc(Cl)ccc1Cl)C(Cl)(Cl)Cl (stereo not given), the Potency was inconclusive: 29.1 µM [inhibitor, single point].
In the case of Cc1ccc(C(=O)N2CCN(c3ccc([N+](=O)[O-])cc3-n3cccc3)CC2)cc1, the Potency is reported as inconclusive: 11.2 µM [inhibitor, partial curve, poor fit].
In the case of CCCN(CCC)C(=O)CSc1nc2n[nH]c(C)c2c(=N)n1-c1ccc(OCC)cc1, the Potency is reported as active: 11.2 µM.
For CCc1nnc(NC(=O)CSc2nnc(C(C)NC(=O)c3ccccc3)n2C)s1 (stereo not given), the “activity change, negative = inhibition” value was inactive: -3.23% [at 46.1 µM].
In the case of CN(C)c1ccc(NC(=O)CC(NCc2cccnc2)C(=O)O)cc1 (stereo not given), the “activity change, negative = inhibition” value is reported as inactive: 2.83% [at 46.1 µM].
With CCOCCOC(=O)c1[nH]c2c(c1C)C(=O)CC(c1cccs1)C2 (stereo not given) the Potency was inconclusive: 0.411 µM [inhibitor, full curve, poor fit].
In the case of Cc1ccccc1NC(=O)c1sc2nc3n(c(=O)c2c1C)N=C(c1ccccc1)CS3, the “activity change, negative = inhibition” value is reported as inactive: -5.42% [at 46.1 µM].
In the case of COc1cc(OC)c(CN2CCCCCCC2)cc1Br, the “activity change, negative = inhibition” value is reported as inactive: 0.976%.
In the case of CNC(=S)NNC(=O)c1sc2cc(C(F)(F)F)cnc2c1-c1cccnc1, the “activity change, negative = inhibition” value is reported as inactive: -15.2% [at 46.1 µM].
For O=C(NC(=O)c1cccc(F)c1)Nc1nc(-c2ccc(F)cc2)cc(C(F)(F)F)n1, the Potency was inconclusive: 8.91 µM [inhibitor, partial curve, poor fit].
In the case of N#C/C(=C(\O)C(F)(F)F)c1nnc2n1CCCCC2, the Potency is reported as inconclusive: 35.5 µM [inhibitor, single point].
In the case of COc1ccccc1-c1nc2cc3ccccc3cc2nc1-c1ccccc1, the “activity change, negative = inhibition” value is reported as inactive: -0.947%.
With CC(=O)c1ccc(C(=O)NC2CCCN(Cc3ccccc3F)C2)s1 (stereo not given) the Potency was inconclusive: 2.24 µM [activator, partial curve].
With Cc1nc(S/C(=C/c2ccc(-c3cccc(Cl)c3)o2)C(=O)O)n[nH]1 the Potency was inconclusive: 35.5 µM [inhibitor, single point].
With Cc1ccc(-c2cc(C(=O)N/N=C/c3c[nH]c4ccccc34)[nH]n2)cc1 the Potency was inconclusive: 2.51 µM [inhibitor, full curve, poor fit].
In the case of COc1ccccc1N1CCN(C(=O)CN(Cc2ccccc2)S(C)(=O)=O)CC1, the Potency is reported as inconclusive: 9.2 µM [inhibitor, partial curve, poor fit].
In the case of O=C(Nc1ccc(NC(=O)C2CC2)cn1)c1ccccc1, the Potency is reported as active: 5.62 µM.
In the case of COc1ccc(/C=C2\CCc3ccccc3C2=O)cc1CN1CCOCC1, the Potency is reported as inconclusive: 11.2 µM [inhibitor, partial curve, poor fit].
In the case of O=C(NC(=S)Nc1cccc(Cl)c1N1CCCCC1)c1ccco1, the Potency is reported as inconclusive: 29.1 µM [inhibitor, single point].
For O=C(Nc1nc(-c2ccc(S(=O)(=O)N3CCCCCC3)cc2)cs1)c1ccccc1, the Potency was inconclusive: 29.1 µM [inhibitor, single point].
With CN(C)C(=O)c1ccc(-c2nnc(NCc3ccccc3)c3ccccc23)cc1 the “activity change, negative = inhibition” value was inactive: -11.6%.
For CCCn1c(=O)c2sccc2n2c(CCCC(=O)N3CCN(c4ccc(OC)cc4)CC3)nnc12, the “activity change, negative = inhibition” value was inactive: 12.5% [at 46.1 µM].
With Oc1c(Br)cc(/C=N/Nc2nncc3ccccc23)cc1Br the “activity change, negative = inhibition” value was inactive: 12.8% [at 46.1 µM].
In the case of CCCN(CCC)CCCNC(=O)c1ccc2c(Cl)c3c(nc2c1)CCC3, the “activity change, negative = inhibition” value is reported as inactive: -1.61%.
With COc1ccc(C2(C)NC(=O)N(CC(=O)Nc3ccc(S(=O)(=O)N4CCCC4)cc3)C2=O)cc1 (stereo not given) the “activity change, negative = inhibition” value was inactive: -11.9%.
With O=C(CCl)N1c2ccccc2SCC1c1ccccc1 (stereo not given) the Potency was inconclusive: 35.5 µM [inhibitor, single point].
With N#CCc1ccc(NC(=O)c2ccc(S(=O)(=O)N3CCCC3)cc2)cc1 the “activity change, negative = inhibition” value was inactive: -15.1% [at 46.1 µM].
With O=C(Nc1ccc(F)cc1F)c1ccc(-n2cnc3cccnc32)cc1 the “activity change, negative = inhibition” value was inactive: -4.78% [at 46.1 µM].
In the case of CC(C)COC(=O)c1ccc(NC(=O)C2C3C=CC(C3)C2C(=O)O)cc1 (stereo not given), the Potency is reported as inconclusive: 1.26 µM [activator, single point].
For Cc1ccc(S(=O)(=O)N2CCC(C(=O)N3CCC[C@H]3C(=O)NCC(C)C)CC2)cc1, the “activity change, negative = inhibition” value was inactive: 16.1% [at 46.1 µM].
With CCC(C(=O)OCC(=O)c1c(N)n(CC(C)C)c(=O)n(C)c1=O)c1ccccc1 (stereo not given) the Potency was inconclusive: 15.8 µM [inhibitor, partial curve].
With O=C(CSc1ccc2nc(-c3ccccc3)cn2n1)Nc1ccccc1 the Potency was inconclusive: 6.31 µM [activator, single point].
With O=C(c1ccc2c(c1)OCO2)N1CCCc2ccccc21 the “activity change, negative = inhibition” value was inactive: 10.9%.
For O=C(Nc1ccc(Cl)cc1Cl)C1=Cc2ccccc2OC1, the Potency was active: 12.6 µM.
In the case of CCOc1ccc(C2CC(=O)c3c([nH]c(C(=O)OC)c3C)C2)cc1OC (stereo not given), the Potency is reported as inconclusive: 35.5 µM [inhibitor, single point].
With CCOC(=O)N1CCN(CC(=O)Nc2cc(C)nn2-c2nc3ccccc3s2)CC1 the Potency was inconclusive: 23.1 µM [inhibitor, single point].
With CN(c1ccccc1)c1ccc(/C=C(\C#N)c2nnc3n2CCCCC3)cc1[N+](=O)[O-] the Potency was active: 7.08 µM.
For CC(C(=O)c1ccc(-c2ccccc2)cc1)[n+]1cccc(NC(=O)c2ccccc2)c1 (stereo not given), the “activity change, negative = inhibition” value was inactive: -5.59% [at 46.1 µM].
In the case of Cc1cccc(S(=O)(=O)C(C#N)c2nc3ccccc3nc2N2CC(C)OC(C)C2)c1 (stereo not given), the Potency is reported as inconclusive: 29.1 µM [inhibitor, single point].
With CC(=O)O[C@H]1Cc2ccccc2N(C(N)=O)c2ccccc21 the Potency was inconclusive: 5.8 µM [activator, full curve].
In the case of CCOCCCNC(=O)CN1C(=O)COc2ccc(S(=O)(=O)N3CCOCC3)cc21, the “activity change, negative = inhibition” value is reported as inactive: 6.17% [at 46.1 µM].
For O=C(c1cc(Sc2cccc(Cl)c2)nc2ccccc12)N1CCN(c2ccccn2)CC1, the Potency was inconclusive: 17.8 µM [inhibitor, partial curve, poor fit].
For COC(=O)c1cc(-c2ccc(NC(C)=O)cc2)nc2ccccc12, the Potency was inconclusive: 1.26 µM [inhibitor, partial curve, poor fit].
For C1CCCN(C2CCNCC2)CC1, the Potency was inconclusive: 12.6 µM [inhibitor, single point].
With CCCCNC(=S)NNc1c(Cl)cc(Cl)cc1Cl the Potency was inconclusive: 0.282 µM [inhibitor, partial curve, poor fit].
In the case of O=C(NC1CCCC1)C(c1cc2c(cc1[N+](=O)[O-])OCO2)N1CCCC1 (stereo not given), the Potency is reported as inconclusive: 17.8 µM [activator, single point].
With CC1CCCN(c2ccc([N+](=O)[O-])cc2C(=O)c2ccccc2)C1 (stereo not given) the Potency was inconclusive: 0.651 µM [inhibitor, partial curve, poor fit].
With COC(=O)C1(C)NC(c2cccs2)C2C(=O)N(c3ccccc3F)C(=O)C21 (stereo not given) the Potency was inconclusive: 0.259 µM [inhibitor, single point].
With CCOC(=O)C1CCN(C(c2ccc(C)cc2)c2sc3nc(-c4ccco4)nn3c2O)CC1 (stereo not given) the “activity change, negative = inhibition” value was inactive: 14.6% [at 46.1 µM].
For C=CCn1c2ccccc2c2nnc(SCCCn3c(=O)[nH]c4ccccc43)nc21, the Potency was inconclusive: 15.8 µM [inhibitor, single point].
For CC1(C)C(CSc2nc3ccccc3[nH]2)C1(Cl)Cl (stereo not given), the Potency was inconclusive: 35.5 µM [inhibitor, single point].
With CC(C)c1ccc(CNC(=O)c2ccc(N3CCCC3)c(NC(=O)NCc3ccc(F)cc3)c2)cc1 the Potency was inconclusive: 35.5 µM [inhibitor, single point].
For COC(=O)c1c(SCC(=O)Nc2ccccc2C(F)(F)F)[nH]c2ccc(Cl)cc2c1=O, the Potency was inconclusive: 7.94 µM [inhibitor, full curve, poor fit].
For O=C(N/N=C/c1ccc(-c2ccccc2[N+](=O)[O-])o1)[C@H]1C[C@@H]1c1ccccc1, the Potency was active: 0.82 µM.
In the case of CCOC(=O)c1ccc(N2C(=O)c3n[nH]c(-c4cccs4)c3C2c2cccc(O)c2)cc1 (stereo not given), the Potency is reported as inconclusive: 12.6 µM [inhibitor, single point].
For Cc1cc2c(nn1)CCc1nonc1-2, the “activity change, negative = inhibition” value was inactive: 6.67%.
For CSCCC(NC(=O)c1ccc(Cl)cc1)C(=O)OCC(=O)Nc1ccc(C#N)cc1 (stereo not given), the “activity change, negative = inhibition” value was inactive: 1.21%.
With Cc1ccc(NS(=O)(=O)c2ccc(C(=O)OCC(=O)NCC3CCCO3)cc2)cc1 (stereo not given) the Potency was inconclusive: 7.94 µM [activator, partial curve, poor fit].
With CCC(Sc1ccccn1)C(=O)Nc1cccc([N+](=O)[O-])c1 (stereo not given) the Potency was inconclusive: 35.5 µM [inhibitor, single point].
With Cc1ccc(Cl)cc1N1CCN(C(=O)c2ccc3nc[nH]c3c2)CC1 the Potency was inconclusive: 14.6 µM [inhibitor, partial curve, poor fit].
In the case of O=C1CCC2(CCCCC2)N1, the Potency is reported as inconclusive: 0.562 µM [inhibitor, full curve, poor fit].
For Nn1c(SCC(=O)Nc2ccc3c(c2)OCCO3)nnc1-c1ccncc1, the Potency was inconclusive: 0.562 µM [inhibitor, partial curve, poor fit].
For COc1ccc(N(C)C(=O)c2oc(=O)c3ccccc3c2-c2ccc(C)cc2)c(OC)c1, the Potency was inconclusive: 35.5 µM [inhibitor, single point].
